## Primary screen of a compound library

Sequences of proteins named here, by UniProt entry; tags and fusion partners are left off. Residues count along the entry.
UniProt A4I591, 1-473: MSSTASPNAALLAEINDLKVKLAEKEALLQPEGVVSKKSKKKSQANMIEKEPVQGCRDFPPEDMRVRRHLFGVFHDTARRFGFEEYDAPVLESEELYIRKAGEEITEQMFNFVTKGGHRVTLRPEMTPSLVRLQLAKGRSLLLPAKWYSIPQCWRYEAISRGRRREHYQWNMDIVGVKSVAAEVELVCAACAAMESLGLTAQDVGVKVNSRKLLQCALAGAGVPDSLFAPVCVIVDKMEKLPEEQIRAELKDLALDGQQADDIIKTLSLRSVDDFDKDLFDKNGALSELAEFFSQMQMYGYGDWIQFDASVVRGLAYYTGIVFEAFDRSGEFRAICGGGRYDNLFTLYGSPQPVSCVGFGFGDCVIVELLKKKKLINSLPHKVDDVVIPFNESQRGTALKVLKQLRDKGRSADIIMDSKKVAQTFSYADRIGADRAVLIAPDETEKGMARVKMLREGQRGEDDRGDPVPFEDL

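Enzyme assay of histidyl-tRNA synthetase; the read-out is not stated. Target: Histidine-tRNA ligase, Leishmania infantum (UniProt A4I591). Concentration: 30 µM. Direction is inferred from retests: higher values go with stronger inhibition. The assay is labelled LdHisRS but filed under L. infantum. Of about 69,000 compounds tested this way, about 410 (0.6%) reached 50% or more in at least one test.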

Results are given as percent effect. How 0% and 100% were set is not recorded. Most values in the screen are low, and negative values occur. The compounds are a random part of those screened.

SMILES | percent effect
Cc1noc(C2CCN(C(=O)CCNS(C)(=O)=O)CC2)n1 | 8.511
CCCn1ccnc1CN1CCCC(CC)(CO)C1 (stereo not drawn) | -8.861
Cc1cnc(-c2nc(C3CCN(Cc4ccccc4O)CC3)no2)cn1 | 2.878
Cc1ccccc1NC(=O)Nc1c[nH]c(=O)[nH]c1=O | 25
CCN(CC)S(=O)(=O)N1CCC(c2nccn2Cc2ccccn2)CC1 | 24
Cc1nnc(NCC2(c3ccc(Cl)cc3Cl)CCOCC2)c(C#N)c1C | 21.15
C[C@H]1C[C@H]2CN(C(=O)CCOc3ccccc3)CC[C@H]2O1 | 14
O=C(Cc1ccccc1)N1CC(=O)N(Cc2ccco2)CC(O)C1 (stereo not drawn) | 6.122
O=C(Cn1nc2c(cc1=O)CSCC2)NC(Cc1ccccc1)C(=O)O (stereo not drawn) | 19.42
Cc1cnn(CC2CN(Cc3nc(C)no3)CCO2)c1 (stereo not drawn) | 13.16
Cc1nn(C)c2ncc(NC(=O)N(C)Cc3cc(Cl)cn3C)cc12 | 8.901
CSCC(=O)N(C)Cc1ccc(N(C)C)cc1 | 11.71
CCc1[nH]c2c(CNc3nccc(N)n3)cc(C)cc2c1C | 36.07
CCCN1CCCC(O)(c2nc(C)c(COc3ccccc3)s2)CC1 (stereo not drawn) | 9.929
O=C(C1CCC1)N1CCc2[nH]cnc2C12CCN(C1CCOCC1)CC2 | 8.219
Cc1nc(NCC2CC2)nc2c1COCC21CCN(S(=O)(=O)C2CC2)C1 (stereo not drawn) | 20
COCC(=O)N1C[C@H]2CCC[C@@]2(COC)C1 | 5.769
CC(C)NC(=O)[C@H]1C[C@@H]2CN(C(=O)NCCc3ccccc3)C[C@H]1O2 | 9.091
CCn1cnnc1CNC(=O)N(C)Cc1ccccc1OC | 11.69
CCCS(=O)(=O)N[C@H]1CN(c2ncccc2C(N)=O)C[C@@H]1C(C)C | -1.316
O=C(NCCNc1ccccn1)NCC1CCS(=O)(=O)C1 (stereo not drawn) | -1.587
CC(=O)N1CC(c2n[nH]c3ncccc23)C1 | 4.255
Cc1nn(C)c2cnn(Cc3ccc(C(=O)NCC4CC4)o3)c12 | 16.81
CC(c1cccc(Cl)c1)N1CCN(S(C)(=O)=O)CC1 (stereo not drawn) | 26.76
Cc1ccc(N2CCO[C@H]3CN(CC4CC4)C[C@H]32)nn1 | 6.015
CN(Cc1n[nH]c(=O)n1Cc1ccccc1F)S(C)(=O)=O | 16.95
O=C(CC1CC1)N1CCC2(CC(=O)N(c3cccc(F)c3)C2)C1 (stereo not drawn) | 22.37
O=C(CN1CCOCS1(=O)=O)NCCc1ccc(Cl)cc1 | 22.22
O=C(Nc1ccccc1F)C1=NOC2(CCNCC2)C1 | 10.53
COC(CNC(=O)c1cc(C)on1)c1ccccc1C (stereo not drawn) | 1.695
COC(C(=O)N1CCCN(Cc2cscn2)CC1)c1ccccc1 (stereo not drawn) | -7.2
O=C(NCC(F)(F)F)C1CCCN(Cc2ccno2)C1 (stereo not drawn) | 21.67
O=C(NCCNc1ncccn1)N1CCN(c2nccs2)CC1 | 6.14
Cc1nnc(CN(Cc2ccc(Cl)c(Cl)c2)C(C)C)o1 | -4
Cc1ccccc1CN1CCCC1c1cccc(Nc2nccs2)n1 (stereo not drawn) | 2.797
CC(C)(C)c1nc(CN2CCC(c3ccnn3CCO)CC2)no1 | 3.571
CN1CC(=O)N(c2ccccc2)CC12CCN(S(C)(=O)=O)C2 (stereo not drawn) | -5.882
O=c1ccc(-c2cccs2)nn1CN1CCOCC1 | 10.53
O=C(C1CCC1)N1CCN(Cc2ccc(F)cc2)[C@H]2CS(=O)(=O)C[C@H]21 | 17.81
CN1N=C(C(=O)N(Cc2ccco2)C2CCCC2)CCC1=O | 9.574
CC(C)n1cc(CN(Cc2ccc(F)cc2)CC2CCCO2)cn1 (stereo not drawn) | 6.667
Cc1cc(N2CCN(C3CCOCC3)CC(C(=O)N(C)C)C2)ncn1 (stereo not drawn) | 8.571
CCc1c(C(=O)N2CCOC(C)(C)C2)cnn1-c1ccccn1 | 22.39
CCc1ccc(CN2CCc3c(nnn3C)C2COC)cc1 (stereo not drawn) | -24
Cc1ccc2oc(=O)n(CCC(=O)N3CCC4(CN(C)C(=O)O4)C3)c2c1 (stereo not drawn) | 6.452
COCc1nccc(C2CCCN(Cc3ccc(C#N)cc3)C2)n1 (stereo not drawn) | 7.895
CC(C)(CNc1cccc(Cl)c1)NC(=O)C1CCCN(CC(N)=O)C1 (stereo not drawn) | 6.667
Cc1noc(NC(=O)c2ccc(Br)cc2)n1 | 25.76
Cc1ncsc1CN1C[C@@H](OCc2ccccn2)[C@H]2OCCC[C@H]21 | 19.74
Cc1ccc(CN2CC(C(=O)NCC3CC3)C3(CCOCC3)C2)s1 (stereo not drawn) | 26.03
Cc1cnn(CCNCc2nc(COc3ccc(F)cc3)no2)c1 | 28
CC(C#N)NS(=O)(=O)c1cccc(C(C)C)c1 (stereo not drawn) | 6.202
COCCN(C(=O)c1ccsc1)c1ccc(C#N)cc1 | 10
Cc1cnn(CC(=O)NCC2(O)CCCc3ccccc32)c1 (stereo not drawn) | 6.383
CN(C)C(=O)N1CCC2(CC1)COCCN(c1ncccn1)C2 | 6.944
Cc1[nH]/c(=N\C(=O)c2csc(NC3CCCC3)n2)sc1C | 46.75
CNC(=O)c1cccc(NC(=O)NCc2ccc(SC)cc2)c1C | 11.67
CN1CCN(Cc2cnn(-c3ccccc3Cl)c2)[C@H]2CS(=O)(=O)C[C@H]21 | 5.714
COCCC(=O)N1CCN(C)c2ncccc2C1 | -29.25

The first 6 entries again:

SMILES,percent effect
Cc1noc(C2CCN(C(=O)CCNS(C)(=O)=O)CC2)n1,8.511
CCCn1ccnc1CN1CCCC(CC)(CO)C1 (stereo not drawn),-8.861
Cc1cnc(-c2nc(C3CCN(Cc4ccccc4O)CC3)no2)cn1,2.878
Cc1ccccc1NC(=O)Nc1c[nH]c(=O)[nH]c1=O,25
CCN(CC)S(=O)(=O)N1CCC(c2nccn2Cc2ccccn2)CC1,24
Cc1nnc(NCC2(c3ccc(Cl)cc3Cl)CCOCC2)c(C#N)c1C,21.15

Measurements from “University of Dundee, Small-Polar-MMV Screening Library” (2021), ChEMBL document CHEMBL3988442.